Literature values, collected in patent publication US12517114B2, “Primary gastrointestinal stromal tumor cell culture medium, culture method and application thereof” (PRECEDO PHARMACEUTICALS CO., LTD, priority 2021, dated 2026).
At least one compound was matched to its structure with a doubt left.

Tested on: gastrointestinal stromal tumors
Conditions: patients with imatinib resistance, second-line treatment; cited from earlier work

CCN(CC)CCNC(=O)c1c(C)[nH]c(/C=C2\C(=O)Nc3ccc(F)cc32)c1C [Sunitinib]
median progression-free survival extension: 6.8 months
